# Results reported in patent US20110301194A1, “Method for Determining Treatment Efficacy” (ArQule, Inc., priority 2010, published 2011).
# Test system: serum HGF
# Experiment: Serum HGF in hepatocellular carcinoma patients given Agent A
# Format: in vivo, human
# Settings: patients with hepatocellular carcinoma, oral 360 mg BID, 28-day cycles; after administration; higher than in previous treated patient populations
# Method: Patients with hepatocellular carcinoma (Table 1) were administered with (−)-trans-3-(5,6-dihydro-4H-pyrrolo[3,2,1-ij]quinolin-1-yl)-4-(1H-indol-3-yl)pyrrolidine-2,5-dione at an oral dose of 360 mg of (−)-trans-3-(5,6-dihydro-4H-pyrrolo[3,2,1-ij]quinolin-1-yl)-4-(1H-indol-3-yl)pyrrolidine-2,5-dione (Agent A) twice daily (BID) for several cycles of 28-day period. Serum HGF from the patients were collected and analysed. HGF serum levels (median 2400 ng/mL) were higher after the administration of Agent A than in previous treated patient populations. HGF levels were correlated to the efficacy of Agent A and neutropenia (FIGS. 3a and 3b).
compound,measurement,value
"O=C1NC(=O)[C@@H](c2cn3c4c(cccc24)CCC3)[C@@H]1c1c[nH]c2ccccc12 [Agent A, (−)-trans-3-(5,6-dihydro-4H-pyrrolo[3,2,1-ij]quinolin-1-yl)-4-(1H-indol-3-yl)pyrrolidine-2,5-dione]",HGF serum levels (median),2400 ng/mL
